Amino acid sequences for entries named in this document (tags omitted).
UniProt P67809: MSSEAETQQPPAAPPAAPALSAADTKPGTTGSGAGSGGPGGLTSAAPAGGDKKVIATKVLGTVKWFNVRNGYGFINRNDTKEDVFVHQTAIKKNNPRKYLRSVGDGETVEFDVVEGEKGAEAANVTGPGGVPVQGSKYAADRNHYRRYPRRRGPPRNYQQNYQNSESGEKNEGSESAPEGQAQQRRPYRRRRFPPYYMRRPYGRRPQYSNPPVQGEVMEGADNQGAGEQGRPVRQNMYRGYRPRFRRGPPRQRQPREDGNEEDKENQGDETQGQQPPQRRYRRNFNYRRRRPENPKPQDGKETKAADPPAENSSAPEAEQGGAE
UniProt P21673: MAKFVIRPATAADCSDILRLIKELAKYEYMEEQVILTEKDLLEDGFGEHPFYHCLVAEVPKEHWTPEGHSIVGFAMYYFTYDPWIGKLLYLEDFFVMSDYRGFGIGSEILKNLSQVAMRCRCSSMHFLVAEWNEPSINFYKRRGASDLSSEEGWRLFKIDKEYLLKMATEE
UniProt O95714: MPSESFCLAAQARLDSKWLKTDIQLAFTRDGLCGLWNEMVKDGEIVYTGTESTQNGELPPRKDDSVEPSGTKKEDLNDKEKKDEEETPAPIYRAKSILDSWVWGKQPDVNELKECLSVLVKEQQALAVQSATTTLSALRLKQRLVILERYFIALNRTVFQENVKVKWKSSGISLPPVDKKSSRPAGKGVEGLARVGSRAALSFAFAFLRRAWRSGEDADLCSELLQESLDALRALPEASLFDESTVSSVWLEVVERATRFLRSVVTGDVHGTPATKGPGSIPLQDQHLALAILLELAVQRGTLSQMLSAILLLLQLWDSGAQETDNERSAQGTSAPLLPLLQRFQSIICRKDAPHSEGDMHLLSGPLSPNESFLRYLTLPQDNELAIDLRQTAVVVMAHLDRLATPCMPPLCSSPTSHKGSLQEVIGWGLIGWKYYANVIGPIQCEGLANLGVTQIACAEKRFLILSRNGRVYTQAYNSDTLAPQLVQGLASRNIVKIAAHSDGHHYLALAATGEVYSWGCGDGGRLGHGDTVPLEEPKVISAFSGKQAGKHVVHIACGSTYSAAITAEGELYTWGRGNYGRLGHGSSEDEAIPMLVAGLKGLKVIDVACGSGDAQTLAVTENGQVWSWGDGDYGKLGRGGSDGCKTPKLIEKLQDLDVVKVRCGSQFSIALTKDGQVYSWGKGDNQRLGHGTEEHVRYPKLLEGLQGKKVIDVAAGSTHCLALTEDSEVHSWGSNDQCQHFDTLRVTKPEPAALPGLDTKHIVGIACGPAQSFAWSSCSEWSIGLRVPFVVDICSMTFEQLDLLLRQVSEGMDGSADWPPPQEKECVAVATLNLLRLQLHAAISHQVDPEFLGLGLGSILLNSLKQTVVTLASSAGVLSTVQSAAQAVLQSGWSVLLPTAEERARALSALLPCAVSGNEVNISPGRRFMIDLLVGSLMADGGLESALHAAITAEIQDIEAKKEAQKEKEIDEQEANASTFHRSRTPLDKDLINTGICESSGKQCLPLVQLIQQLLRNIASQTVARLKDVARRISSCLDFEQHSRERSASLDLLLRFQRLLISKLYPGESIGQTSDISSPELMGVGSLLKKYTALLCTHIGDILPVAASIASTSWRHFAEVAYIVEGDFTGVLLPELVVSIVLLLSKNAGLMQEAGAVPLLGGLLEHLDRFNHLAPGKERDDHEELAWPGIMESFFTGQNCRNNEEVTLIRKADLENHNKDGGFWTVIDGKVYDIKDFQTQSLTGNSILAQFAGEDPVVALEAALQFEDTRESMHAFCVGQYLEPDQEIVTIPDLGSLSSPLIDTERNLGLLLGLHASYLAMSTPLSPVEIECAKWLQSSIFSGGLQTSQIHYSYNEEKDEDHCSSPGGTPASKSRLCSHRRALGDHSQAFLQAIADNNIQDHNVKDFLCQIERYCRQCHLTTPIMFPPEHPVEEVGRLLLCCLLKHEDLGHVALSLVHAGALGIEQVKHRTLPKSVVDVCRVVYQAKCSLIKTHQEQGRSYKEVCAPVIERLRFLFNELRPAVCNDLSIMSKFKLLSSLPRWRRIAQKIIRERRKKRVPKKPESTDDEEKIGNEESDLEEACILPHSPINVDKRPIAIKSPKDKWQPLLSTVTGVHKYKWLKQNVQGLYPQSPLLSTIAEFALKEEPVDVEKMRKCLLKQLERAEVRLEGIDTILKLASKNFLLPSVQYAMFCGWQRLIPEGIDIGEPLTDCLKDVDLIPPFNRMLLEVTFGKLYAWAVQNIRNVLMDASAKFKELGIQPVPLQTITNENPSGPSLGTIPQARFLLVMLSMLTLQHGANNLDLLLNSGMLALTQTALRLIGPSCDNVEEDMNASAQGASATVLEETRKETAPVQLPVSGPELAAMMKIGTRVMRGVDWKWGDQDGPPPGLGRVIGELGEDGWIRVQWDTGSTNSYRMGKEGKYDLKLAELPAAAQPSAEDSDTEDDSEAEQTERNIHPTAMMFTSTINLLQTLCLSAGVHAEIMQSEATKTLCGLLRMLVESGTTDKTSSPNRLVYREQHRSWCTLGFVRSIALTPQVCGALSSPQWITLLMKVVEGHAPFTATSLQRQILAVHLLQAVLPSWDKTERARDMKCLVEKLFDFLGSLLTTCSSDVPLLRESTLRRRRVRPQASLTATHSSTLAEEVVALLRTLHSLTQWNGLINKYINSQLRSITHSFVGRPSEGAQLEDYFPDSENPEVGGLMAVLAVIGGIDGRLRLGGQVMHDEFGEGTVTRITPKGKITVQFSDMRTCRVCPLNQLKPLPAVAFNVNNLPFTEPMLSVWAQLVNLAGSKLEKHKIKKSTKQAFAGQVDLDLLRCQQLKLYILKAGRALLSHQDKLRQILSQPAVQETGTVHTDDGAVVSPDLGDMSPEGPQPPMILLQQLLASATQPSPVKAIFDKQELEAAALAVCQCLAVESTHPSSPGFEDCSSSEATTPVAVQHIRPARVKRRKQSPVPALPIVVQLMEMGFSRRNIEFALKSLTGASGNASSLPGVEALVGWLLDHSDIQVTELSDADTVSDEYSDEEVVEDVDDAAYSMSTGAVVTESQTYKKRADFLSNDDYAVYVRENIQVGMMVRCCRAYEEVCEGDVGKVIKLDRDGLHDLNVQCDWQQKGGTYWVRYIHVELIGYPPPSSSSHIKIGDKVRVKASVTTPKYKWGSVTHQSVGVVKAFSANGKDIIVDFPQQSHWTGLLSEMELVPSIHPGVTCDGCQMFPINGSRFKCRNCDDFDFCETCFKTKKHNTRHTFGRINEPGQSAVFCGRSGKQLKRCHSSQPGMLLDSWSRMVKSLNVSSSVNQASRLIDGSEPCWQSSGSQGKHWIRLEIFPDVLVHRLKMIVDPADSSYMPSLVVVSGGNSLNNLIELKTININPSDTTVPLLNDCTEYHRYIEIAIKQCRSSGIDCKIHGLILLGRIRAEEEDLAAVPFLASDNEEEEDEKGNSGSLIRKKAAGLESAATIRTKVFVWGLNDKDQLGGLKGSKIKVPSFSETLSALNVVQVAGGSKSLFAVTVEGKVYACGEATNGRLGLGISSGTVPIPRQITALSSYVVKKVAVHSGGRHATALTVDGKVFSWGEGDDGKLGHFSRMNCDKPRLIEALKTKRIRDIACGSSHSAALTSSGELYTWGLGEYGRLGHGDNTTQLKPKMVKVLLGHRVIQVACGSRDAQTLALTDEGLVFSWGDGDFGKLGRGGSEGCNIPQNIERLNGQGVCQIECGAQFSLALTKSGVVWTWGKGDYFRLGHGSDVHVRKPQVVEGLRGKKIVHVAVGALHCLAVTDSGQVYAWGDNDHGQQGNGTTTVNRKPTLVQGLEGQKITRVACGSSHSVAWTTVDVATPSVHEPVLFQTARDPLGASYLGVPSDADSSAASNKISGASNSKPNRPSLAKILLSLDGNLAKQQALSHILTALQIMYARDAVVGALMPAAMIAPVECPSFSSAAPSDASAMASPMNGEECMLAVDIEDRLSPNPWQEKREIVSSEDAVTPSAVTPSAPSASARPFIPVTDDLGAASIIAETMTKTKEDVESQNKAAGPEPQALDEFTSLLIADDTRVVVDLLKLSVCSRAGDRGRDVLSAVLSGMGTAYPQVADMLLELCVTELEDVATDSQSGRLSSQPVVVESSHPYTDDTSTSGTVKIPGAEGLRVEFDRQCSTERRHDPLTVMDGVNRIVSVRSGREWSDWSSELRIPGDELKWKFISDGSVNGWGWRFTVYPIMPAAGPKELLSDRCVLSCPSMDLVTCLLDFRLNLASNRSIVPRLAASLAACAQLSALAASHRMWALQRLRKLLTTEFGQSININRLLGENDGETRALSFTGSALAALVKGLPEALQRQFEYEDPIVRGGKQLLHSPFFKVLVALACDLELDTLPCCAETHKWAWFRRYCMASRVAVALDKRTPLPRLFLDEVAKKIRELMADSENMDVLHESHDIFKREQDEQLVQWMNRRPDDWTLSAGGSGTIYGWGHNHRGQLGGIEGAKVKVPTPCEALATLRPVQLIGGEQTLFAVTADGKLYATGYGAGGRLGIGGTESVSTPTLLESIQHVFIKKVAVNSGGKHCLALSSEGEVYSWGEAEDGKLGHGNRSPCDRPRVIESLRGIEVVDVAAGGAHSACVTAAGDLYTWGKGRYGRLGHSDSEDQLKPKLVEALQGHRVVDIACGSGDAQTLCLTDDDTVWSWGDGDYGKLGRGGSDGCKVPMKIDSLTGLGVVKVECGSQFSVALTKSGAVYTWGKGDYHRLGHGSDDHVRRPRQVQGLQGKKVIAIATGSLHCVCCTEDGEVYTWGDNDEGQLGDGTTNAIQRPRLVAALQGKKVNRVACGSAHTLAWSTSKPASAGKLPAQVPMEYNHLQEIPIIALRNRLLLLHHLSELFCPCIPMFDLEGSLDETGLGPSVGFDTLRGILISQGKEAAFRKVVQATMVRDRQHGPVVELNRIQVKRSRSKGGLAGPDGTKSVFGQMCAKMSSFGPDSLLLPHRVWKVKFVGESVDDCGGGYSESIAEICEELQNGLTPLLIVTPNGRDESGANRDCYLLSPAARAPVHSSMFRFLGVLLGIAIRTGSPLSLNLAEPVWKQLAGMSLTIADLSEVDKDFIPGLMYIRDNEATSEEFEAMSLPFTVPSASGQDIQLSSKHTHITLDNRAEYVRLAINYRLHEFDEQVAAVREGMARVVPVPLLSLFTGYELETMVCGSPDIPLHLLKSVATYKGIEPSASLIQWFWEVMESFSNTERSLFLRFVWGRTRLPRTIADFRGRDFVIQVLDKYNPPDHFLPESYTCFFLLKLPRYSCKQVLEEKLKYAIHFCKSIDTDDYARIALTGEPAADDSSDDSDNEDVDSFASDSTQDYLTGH

In article PMC11423137:

Experiments:
[1] = target: Y-box binding protein 1 (human (endogenous in BT549 and SUM159PT)) (UniProt P67809); experiment: affinity purification with mass spectrometry; mass spectrometry of YBX1 immunoprecipitants from BT549 cells
[2] = target: Spermidine/Spermine N1-acetyltransferase 1 (human (endogenous in BT549 and SUM159PT)) (UniProt P21673); experiment: affinity purification with mass spectrometry; CoIP of SAT1 from BT549 and SUM159PT lysates, IgG controls; proteins of the control excluded, intersection of the two cell lines taken

E3 ligase HERC2 (from UniProt O95714 1-4834) (enzyme)
binding [1]: binds

Y-box binding protein 1 (from UniProt P67809 1-324)
binding [2]: binds

B1: E3 ligase HERC5 (enzyme, UniProt Q9UII4 1-1024)
chain: MERRSRRKSRRNGRSTAGKAAATQPAKSPGAQLWLFPSAAGLHRALLRRVEVTRQLCCSPGRLAVLERGGAGVQVHQLLAGSGGARTPKCIKLGKNMKIHSVDQGAEHMLILSSDGKPFEYDNYSMKHLRFESILQEKKIIQITCGDYHSLALSKGGELFAWGQNLHGQLGVGRKFPSTTTPQIVEHLAGVPLAQISAGEAHSMALSMSGNIYSWGKNECGQLGLGHTESKDDPSLIEGLDNQKVEFVACGGSHSALLTQDGLLFTFGAGKHGQLGHNSTQNELRPCLVAELVGYRVTQIACGRWHTLAYVSDLGKVFSFGSGKDGQLGNGGTRDQLMPLPVKVSSSEELKLESHTSEKELIMIAGGNQSILLWIKKENSYVNLKRTIPTLNEGTVKRWIADVETKRWQSTKREIQEIFSSPACLTGSFLRKRRTTEMMPVYLDLNKARNIFKELTQKDWITNMITTCLKDNLLKRLPFHSPPQEALEIFFLLPECPMMHISNNWESLVVPFAKVVCKMSDQSSLVLEEYWATLQESTFSKLVQMFKTAVICQLDYWDESAEENGNVQALLEMLKKLHRVNQVKCQLPESIFQVDELLHRLNFFVEVCRRYLWKMTVDASENVQCCVIFSHFPFIFNNLSKIKLLHTDTLLKIESKKHKAYLRSAAIEEERESEFALRPTFDLTVRRNHLIEDVLNQLSQFENEDLRKELWVSFSGEIGYDLGGVKKEFFYCLFAEMIQPEYGMFMYPEGASCMWFPVKPKFEKKRYFFFGVLCGLSLFNCNVANLPFPLALFKKLLDQMPSLEDLKELSPDLGKNLQTLLDDEGDNFEEVFYIHFNVHWDRNDTNLIPNGSSITVNQTNKRDYVSKYINYIFNDSVKAVYEEFRRGFYKMCDEDIIKLFHPEELKDVIVGNTDYDWKTFEKNARYEPGYNSSHPTIVMFWKAFHKLTLEEKKKFLVFLTGTDRLQMKDLNNMKITFCCPESWNERDPIRALTCFSVLFLPKYSTMETVEEALQEAINNNRGFG
binding [1]: binds

These are yes or no findings as the source states them, for the method shown. In cells and extracts the contact can be indirect. Here binding means that the protein was enriched with, or labelled near, the bait; the list need not be complete.
